Results are given in words; binding and its absence hold for the method and conditions named. Some entries that bind do so weakly or less than the wild type.
Experiments:
CD20 on Raji cells = target: T1, CD20 on Raji cells (UniProt P11836); test: analytical cytometry on Raji cells, detected with an anti-kappa secondary antibody
T1 sequence (looked up): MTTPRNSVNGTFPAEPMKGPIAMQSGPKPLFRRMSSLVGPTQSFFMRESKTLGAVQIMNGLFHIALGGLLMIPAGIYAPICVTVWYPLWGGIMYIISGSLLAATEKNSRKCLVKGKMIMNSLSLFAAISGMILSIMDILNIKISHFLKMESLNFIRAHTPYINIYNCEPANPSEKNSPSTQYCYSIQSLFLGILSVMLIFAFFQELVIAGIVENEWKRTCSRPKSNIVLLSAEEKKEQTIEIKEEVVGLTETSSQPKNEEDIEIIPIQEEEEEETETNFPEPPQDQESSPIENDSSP

Sequences of proteins named here, by UniProt entry; tags and fusion partners are left off. Residues count along the entry.
UniProt P26951, residues 19-378: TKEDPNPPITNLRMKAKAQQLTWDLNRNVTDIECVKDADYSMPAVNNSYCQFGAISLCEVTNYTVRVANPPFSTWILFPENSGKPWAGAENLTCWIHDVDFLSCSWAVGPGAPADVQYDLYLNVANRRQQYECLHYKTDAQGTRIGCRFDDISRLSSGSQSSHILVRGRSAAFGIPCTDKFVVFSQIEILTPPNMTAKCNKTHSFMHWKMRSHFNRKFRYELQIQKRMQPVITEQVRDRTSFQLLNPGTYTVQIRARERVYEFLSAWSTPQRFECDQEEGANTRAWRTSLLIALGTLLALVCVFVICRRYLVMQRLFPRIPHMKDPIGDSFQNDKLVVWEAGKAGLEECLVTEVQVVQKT

CD123 on MV411 cells = CD123 on MV411 cells (UniProt P26951); test: analytical cytometry on MV411 cells, detected with an anti-kappa secondary antibody

binding (CD20 on Raji cells): binds
binding (CD123 on MV411 cells): binds
B1: Trispecific antibody from FIG. 13: anti-CD33-LC/anti-CD20/anti-CD123/anti-CD33-HC Fab loop (protein)
chain: DIQMTQSPSILSASVGDRVTITCRASESVDNYGISFMNWFQQRTNKAPRLLIYAASNQGSGVPSRFSGSGSGTDFTLTISSLQPDDEADYYCQQSKEVPWTFGAGTKLEIKRTVAAPSVFIFPPSDEQLKSGTASVVCLLNNFYPREAKVQWKVDNALQSGNSQESVTEQDSKDSTYSLSSTLTLSKADYEKHKVYACEVTHQGLSSPVTKSFNRGEGGGSSGEVQLVESGGGLVQAGGSLRLSCAASGSIFSGNVMGWYRRQAPGKEREWVAAIASGGSIYYRDSVKGRFTISRDNAKNTVYLQMNSLKPEDTAVYYCNSHPPTLPYWGLGTQVTVSSGSEVQLVESGGGLVQPGGSLRLSCTFSGGTFSSYTMGWFRQAPGKEREFVAEVRWGGVTTYSNSLKDRFSISEDSVKNAVYLQMNSLKPEDTAVYYCAAVRQMYMTVVPDYWGQGTLVTVSSGGGSSGEVQLVQSGAEVKKPGSSVKVSCKASGYTFTDYNMHWVRQSPGQGLEWIGYIYPYNGGTGYNQKFKSKATITADESTNTAYMELSSLRSEDTAIYYCARGRPAMDYWGQGTLVTVSSASTKGPSVFPLAPSSKSTSGGTAALGCLVKDYFPEPVTVSWNSGALTSGVHTFPCVLQSSGLYSLSSVVTVPSSSLGTQTYICNVNHKPSNTKVDKKVEPKSGDKTHT
